Measurements as given in US12012391B1, “9-(2-hydroxyquinoline-3-yl)-10-[3-(dimethylamino)propyl]-3,4,6,7,9,10-hexahydroacridine-1,8(2H,5H)-dione as an antimicrobial compound” (KING FAISAL UNIVERSITY, priority 2023, dated 2024).
For at least one compound, name, drawing or mass did not settle the structure.

Columns and labels:
Candida albicans = assay: Antimicrobial activity by agar dilution, Candida albicans; assay type: cell-based
Protocol: (§1) The antimicrobial properties of the synthesized compound 9-(2-hydroxyquinoline-3-yl)-10-[3-(dimethylamino)propyl]-3,4,6,7,9,10-hexahydroacridine-1,8(2H,5H)-dione were studied by the method of agar dilution. Test solutions of each compound were prepared in a concentration of 1% using dimethylformamide as a solvent. Then they were diluted in a physiological solution to obtain the final experimental dilutions 1:100, 1:200, 1:400, and 1:800. The effect of these substances were compared with furacillin in a controllable study. The testing microbes used were gram positive bacteria St. aereus, gram negative bacteria E. Coli and Ps. aeruginosa, and Candida albicans fungi. The experiments used for this survey were meat-pentonlu agar (EPA) for cultivation of bacteria and Saburo environment for fungi. Each experiment used 1 ml of test solution on each plate 500 min. Add 2 drops of emulsified with microbes feel. All experimental samples were taken from the agar after 10, 20, 40, 60 minutes in the environment on the basis of Patrk planted. Bacteria were cultivated at a temperature of 37° C. for 1 day and the mushroom was kept in a thermostat for […] at a temperature of 28° C. Then the results were checked.

E. Coli = assay: Antimicrobial activity by agar dilution, E. Coli; assay type: cell-based, Escherichia coli
Protocol: as §1

St. aereus = assay: Antimicrobial activity by agar dilution, St. aereus; assay type: cell-based, Staphylococcus aureus
Protocol: as §1

Ps. aeruginosa = assay: Antimicrobial activity by agar dilution, Ps. aeruginosa; assay type: cell-based, Pseudomonas aeruginosa; conditions: Ps. Aerogonaza
Protocol: as §1

[1] = dilution rate 1:100, exposure time 10 min
[2] = dilution rate 1:100, exposure time 20 min
[3] = dilution rate 1:100, exposure time 40 min
[4] = dilution rate 1:100, exposure time 60 min
[5] = dilution rate 1:200, exposure time 10 min
[6] = dilution rate 1:200, exposure time 20 min
[7] = dilution rate 1:200, exposure time 40 min
[8] = dilution rate 1:200, exposure time 60 min
[9] = dilution rate 1:400, exposure time 10 min
[10] = dilution rate 1:400, exposure time 20 min
[11] = dilution rate 1:400, exposure time 40 min
[12] = dilution rate 1:400, exposure time 60 min
[13] = dilution rate 1:800, exposure time 10 min
[14] = dilution rate 1:800, exposure time 20 min
[15] = dilution rate 1:800, exposure time 40 min
[16] = dilution rate 1:800, exposure time 60 min

SMILES: NC(=O)N/N=C/c1ccc([N+](=O)[O-])o1 [Furacilin]
- antimicrobial activity (Candida albicans; [1]): −
- antimicrobial activity (Candida albicans; [2]): −
- antimicrobial activity (Candida albicans; [3]): +
- antimicrobial activity (Candida albicans; [4]): +
- antimicrobial activity (Candida albicans; [5]): +
- antimicrobial activity (Candida albicans; [6]): +
- antimicrobial activity (Candida albicans; [7]): +
- antimicrobial activity (Candida albicans; [8]): +
- antimicrobial activity (Candida albicans; [9]): +
- antimicrobial activity (Candida albicans; [10]): +
- antimicrobial activity (Candida albicans; [11]): +
- antimicrobial activity (Candida albicans; [12]): +
- antimicrobial activity (Candida albicans; [13]): +
- antimicrobial activity (Candida albicans; [14]): +
- antimicrobial activity (Candida albicans; [15]): +
- antimicrobial activity (Candida albicans; [16]): +
- antimicrobial activity (E. Coli; [1]): −
- antimicrobial activity (E. Coli; [2]): −
- antimicrobial activity (E. Coli; [3]): −
- antimicrobial activity (E. Coli; [4]): −
- antimicrobial activity (E. Coli; [5]): +
- antimicrobial activity (E. Coli; [6]): +
- antimicrobial activity (E. Coli; [7]): +
- antimicrobial activity (E. Coli; [8]): +
- antimicrobial activity (E. Coli; [9]): +
- antimicrobial activity (E. Coli; [10]): +
- antimicrobial activity (E. Coli; [11]): +
- antimicrobial activity (E. Coli; [12]): +
- antimicrobial activity (E. Coli; [13]): +
- antimicrobial activity (E. Coli; [14]): +
- antimicrobial activity (E. Coli; [15]): +
- antimicrobial activity (E. Coli; [16]): +
- antimicrobial activity (St. aereus; [1]): −
- antimicrobial activity (St. aereus; [2]): −
- antimicrobial activity (St. aereus; [3]): −
- antimicrobial activity (St. aereus; [4]): −
- antimicrobial activity (St. aereus; [5]): +
- antimicrobial activity (St. aereus; [6]): +
- antimicrobial activity (St. aereus; [7]): +
- antimicrobial activity (St. aereus; [8]): +
- antimicrobial activity (St. aereus; [9]): +
- antimicrobial activity (St. aereus; [10]): +
- antimicrobial activity (St. aereus; [11]): +
- antimicrobial activity (St. aereus; [12]): +
- antimicrobial activity (St. aereus; [13]): +
- antimicrobial activity (St. aereus; [14]): +
- antimicrobial activity (St. aereus; [15]): +
- antimicrobial activity (St. aereus; [16]): +
- antimicrobial activity (Ps. aeruginosa; [1]): +
- antimicrobial activity (Ps. aeruginosa; [2]): +
- antimicrobial activity (Ps. aeruginosa; [3]): +
- antimicrobial activity (Ps. aeruginosa; [4]): +
- antimicrobial activity (Ps. aeruginosa; [5]): +
- antimicrobial activity (Ps. aeruginosa; [6]): +
- antimicrobial activity (Ps. aeruginosa; [7]): +
- antimicrobial activity (Ps. aeruginosa; [8]): +
- antimicrobial activity (Ps. aeruginosa; [9]): +
- antimicrobial activity (Ps. aeruginosa; [10]): +
- antimicrobial activity (Ps. aeruginosa; [11]): +
- antimicrobial activity (Ps. aeruginosa; [12]): +
- antimicrobial activity (Ps. aeruginosa; [13]): +
- antimicrobial activity (Ps. aeruginosa; [14]): +
- antimicrobial activity (Ps. aeruginosa; [15]): +
- antimicrobial activity (Ps. aeruginosa; [16]): +
